Measurements from paper PMC4059965.
Results are given in words; binding and its absence hold for the method and conditions named. Binding seen in cells or lysates may run through a third protein. Some entries that bind do so weakly or less than the wild type.

The chains behind the UniProt entries cited, without tags or fusion partners.
UniProt Q9NQU5: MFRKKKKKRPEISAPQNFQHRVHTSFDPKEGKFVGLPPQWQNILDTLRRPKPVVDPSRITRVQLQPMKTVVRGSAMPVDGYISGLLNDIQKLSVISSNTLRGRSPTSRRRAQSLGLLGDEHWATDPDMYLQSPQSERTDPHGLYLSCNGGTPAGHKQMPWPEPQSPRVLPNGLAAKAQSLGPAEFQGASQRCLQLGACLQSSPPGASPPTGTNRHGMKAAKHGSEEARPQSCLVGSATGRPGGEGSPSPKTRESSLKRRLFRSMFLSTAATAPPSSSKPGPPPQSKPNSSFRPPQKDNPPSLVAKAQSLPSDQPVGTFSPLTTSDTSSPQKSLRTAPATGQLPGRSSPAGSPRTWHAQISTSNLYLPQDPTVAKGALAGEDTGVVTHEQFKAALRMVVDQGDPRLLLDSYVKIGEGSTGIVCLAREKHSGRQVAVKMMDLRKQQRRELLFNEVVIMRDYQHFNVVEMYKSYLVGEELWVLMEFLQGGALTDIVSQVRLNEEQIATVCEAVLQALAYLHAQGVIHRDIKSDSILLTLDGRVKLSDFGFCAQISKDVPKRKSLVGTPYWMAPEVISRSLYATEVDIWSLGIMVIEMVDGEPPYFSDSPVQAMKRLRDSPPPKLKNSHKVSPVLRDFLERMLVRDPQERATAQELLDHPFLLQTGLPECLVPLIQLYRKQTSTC
UniProt P46940: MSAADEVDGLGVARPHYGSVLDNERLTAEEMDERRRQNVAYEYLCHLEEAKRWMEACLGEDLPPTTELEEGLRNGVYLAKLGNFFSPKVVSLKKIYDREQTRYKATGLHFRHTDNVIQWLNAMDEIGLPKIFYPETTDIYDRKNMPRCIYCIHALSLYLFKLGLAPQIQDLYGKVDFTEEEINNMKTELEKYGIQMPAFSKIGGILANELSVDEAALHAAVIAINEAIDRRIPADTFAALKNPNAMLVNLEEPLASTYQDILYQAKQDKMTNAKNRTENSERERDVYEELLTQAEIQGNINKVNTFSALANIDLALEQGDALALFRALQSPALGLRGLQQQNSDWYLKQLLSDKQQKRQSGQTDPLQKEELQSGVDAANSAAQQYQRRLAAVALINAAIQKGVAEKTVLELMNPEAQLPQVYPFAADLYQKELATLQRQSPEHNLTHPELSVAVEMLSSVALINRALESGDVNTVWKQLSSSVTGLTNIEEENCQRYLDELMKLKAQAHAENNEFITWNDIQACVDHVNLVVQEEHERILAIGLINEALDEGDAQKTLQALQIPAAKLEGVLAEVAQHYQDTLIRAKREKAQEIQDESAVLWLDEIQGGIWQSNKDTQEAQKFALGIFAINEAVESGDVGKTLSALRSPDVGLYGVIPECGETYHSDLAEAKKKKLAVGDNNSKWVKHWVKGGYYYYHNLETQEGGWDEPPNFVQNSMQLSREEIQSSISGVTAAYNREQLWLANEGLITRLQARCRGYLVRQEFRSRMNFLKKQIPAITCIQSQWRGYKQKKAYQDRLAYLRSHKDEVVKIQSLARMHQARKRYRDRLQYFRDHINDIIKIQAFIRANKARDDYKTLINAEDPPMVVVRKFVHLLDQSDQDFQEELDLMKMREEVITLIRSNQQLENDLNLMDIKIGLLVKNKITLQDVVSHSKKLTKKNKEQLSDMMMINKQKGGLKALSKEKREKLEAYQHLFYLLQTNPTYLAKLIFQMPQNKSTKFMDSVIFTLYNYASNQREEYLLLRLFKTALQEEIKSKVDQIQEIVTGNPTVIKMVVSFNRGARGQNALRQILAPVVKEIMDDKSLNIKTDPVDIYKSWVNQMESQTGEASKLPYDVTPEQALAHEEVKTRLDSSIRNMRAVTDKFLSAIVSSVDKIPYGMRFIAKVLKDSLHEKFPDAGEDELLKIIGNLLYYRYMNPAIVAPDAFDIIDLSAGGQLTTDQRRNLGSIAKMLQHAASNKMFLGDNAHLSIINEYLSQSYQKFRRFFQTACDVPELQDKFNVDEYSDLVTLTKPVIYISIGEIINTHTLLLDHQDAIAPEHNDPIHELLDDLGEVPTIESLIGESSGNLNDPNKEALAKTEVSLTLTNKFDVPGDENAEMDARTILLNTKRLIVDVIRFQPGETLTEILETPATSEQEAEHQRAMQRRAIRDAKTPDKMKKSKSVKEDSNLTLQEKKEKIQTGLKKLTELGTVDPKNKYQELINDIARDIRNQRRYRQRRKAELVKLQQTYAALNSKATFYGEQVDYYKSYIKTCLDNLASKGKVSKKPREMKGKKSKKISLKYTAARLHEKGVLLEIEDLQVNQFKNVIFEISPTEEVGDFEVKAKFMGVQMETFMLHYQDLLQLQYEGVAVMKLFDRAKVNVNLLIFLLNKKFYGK
UniProt P35222: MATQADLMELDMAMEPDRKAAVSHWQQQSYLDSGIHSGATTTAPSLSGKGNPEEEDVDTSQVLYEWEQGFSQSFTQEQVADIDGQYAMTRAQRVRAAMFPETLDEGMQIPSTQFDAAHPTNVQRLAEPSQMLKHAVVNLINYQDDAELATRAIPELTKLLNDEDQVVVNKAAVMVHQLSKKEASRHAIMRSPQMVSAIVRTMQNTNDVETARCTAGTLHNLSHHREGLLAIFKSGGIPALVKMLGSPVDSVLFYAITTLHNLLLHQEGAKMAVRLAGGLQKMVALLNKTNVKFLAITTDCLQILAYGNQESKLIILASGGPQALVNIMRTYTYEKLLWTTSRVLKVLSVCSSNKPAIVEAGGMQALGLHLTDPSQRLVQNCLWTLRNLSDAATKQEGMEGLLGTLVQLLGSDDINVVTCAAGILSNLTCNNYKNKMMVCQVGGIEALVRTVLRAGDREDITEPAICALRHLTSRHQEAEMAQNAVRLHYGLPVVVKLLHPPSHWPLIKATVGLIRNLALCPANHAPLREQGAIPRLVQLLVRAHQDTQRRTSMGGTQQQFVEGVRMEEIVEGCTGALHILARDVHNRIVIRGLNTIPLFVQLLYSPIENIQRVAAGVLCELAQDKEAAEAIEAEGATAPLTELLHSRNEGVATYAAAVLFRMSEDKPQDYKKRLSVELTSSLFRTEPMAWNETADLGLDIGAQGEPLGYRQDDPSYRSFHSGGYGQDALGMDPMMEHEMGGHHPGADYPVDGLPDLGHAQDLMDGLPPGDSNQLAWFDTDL

Legend:
Myc-PAK6^wt (human) = Myc-PAK6^wt (human) (UniProt Q9NQU5); assay: co-IP; HEK293 cells transfected; lysates pre-cleared, primary antibody (anti-GFP or anti-c-Myc) overnight at 4 °C, protein A or G Sepharose, washed three times with lysis buffer, immunoblot
GST-PAK6 (human) = GST-PAK6 (human) (UniProt Q9NQU5); assay: pull-down; GST-PAK6 on glutathione Sepharose beads with DU145 cell lysates (serum-starved or stimulated with HGF 250 ng/ml, 4 h or 8 h), NP-40 lysis buffer, 2 h at 4 °C, immunoblot for the endogenous proteins; only the target purified
IQGAP1-GFP^wt = IQGAP1-GFP^wt (UniProt P46940); assay: co-IP; HEK293 cells transfected; lysates pre-cleared, primary antibody (anti-GFP or anti-c-Myc) overnight at 4 °C, protein A or G Sepharose, washed three times with lysis buffer, immunoblot

With “GFP-β-catenin^wt (from UniProt P35222 1-781)” the binding (Myc-PAK6^wt (human)) was “binds”.
With “endogenous IQGAP1 (DU145) (from UniProt P46940 1-1657)” the binding (GST-PAK6 (human)) was “binds”.
For “endogenous PAK6 (HEK293) (from UniProt Q9NQU5 1-681)”, the binding (IQGAP1-GFP^wt) was “binds”.
